Reference: PubChem BioAssay AID1508600 (Functional Genomics Laboratory (NCATS/FGL), 2020)
About 3,700 (7%) of roughly 53,000 sequences were called active.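 Rule for the calls: active = gene knockdowns whose robust z-score for IL-1 alpha signal is at least 2 or at most -2, so actives lie on both sides; inactive = the rest.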 Some of the results follow.

Assay: Components of the Cytosolic LPS Sensing Pathway: Gene Identification via Genome-wide siRNA Screen;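 note: robust z of the log signal after scaling to non-targeting control siRNA wells of the plate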
Conditions: RAW264.7 macrophages, IL-1a HTRF, actives lie on both sides, screened at 100 nM (by protocol), cells primed 5 h with Pam3CSK4 first
Procedure, shortened: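 Using IL-1a HTRF as read-out, the screen measured release from RAW264.7 cells after 48h siRNA knockdown (100 nM), 5 h Pam3CSK4 priming and 24 h cytosolic LipidA. Values were expressed relative to negative-control wells as robust z-scores.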

| Sequence | z-score |
| --- | --- |
| GGUCUUCUGAAGAUGGCGUTT against Pja2 | inactive: 1.39 |
| CGCCAAUGUGAUUAAACUATT against Mak | active: 2.01 |
| GGGCUUUAUGCAGACCUACTT against Apoc4 | inactive: -1.8 |
| GCCCUAUAACAACCUCAAGTT against Cdk10 | inactive: -0.695 |
| GCAUGAGACUGUGAACCAGTT against Efnb1 | inactive: -1.72 |
| CGUGGUCGUGAGAUGUUUGTT against Chid1 | inactive: 1.35 |
| GGAGCAAGCACCUAUACUCTT against 1700029M20Rik | inactive: -0.117 |
| GCCUGCCUACGAGAUCAACTT against Mgp | inactive: -0.0804 |
| GGAGAACAAAGUAUUGGUGTT against Cacna1f | inactive: 0.388 |
| CCCUGUUUGGCAAUAACAATT against Nup98 | inactive: -1.61 |
| CCGUGUGCAUUUACGGGCATT against Cndp2 | inactive: 0.318 |
| GGUUUUUGAUAAUUGCCAUTT against Gcsh | inactive: -1.98 |
| GGCUGUGUUCUAAUCAGUATT against Gad2 | inactive: 0.119 |
| GGCCAAAUUUAUAAUGAACTT against Rsl24d1 | inactive: 1.16 |
| GCCAACAUGUAUCAAAGCUTT against Rpgr | inactive: -1.11 |
| GGACUCACAGAAAUUUCCATT against Slc36a1 | inactive: -1.53 |
| GUUUCUUCCAAACUCCAUCTT against Olfr487 | inactive: 0.622 |
| GGCGGAUCUCUUGAGUGUUTT against Glyctk | inactive: 0.213 |
| GGGUCAUUGGUAGCAACGATT against Oas1g | active: -2.9 |
| GGAACCUAUCAUGAUGAAATT against Pter | inactive: -0.607 |
| CCAGUGAUCAGUUUUAACGTT against Adamts20 | inactive: 0.184 |
| GGCUGGAGUAGAAAAGGGATT against Lamtor2 | inactive: -0.909 |

| Sequence | z-score |
| --- | --- |
| GGCAAUGCUGCAUCUCCUATT against Fbln2 | inactive: -0.151 |
| GGUUCUACAUUGGCGAGAUTT against Cdc42bpb | inactive: -0.794 |
| CGUACAACCUCAAGGUUCUTT against Lag3 | inactive: -1.68 |
| CCAAAGAAGGACUUAGAUUTT against Ddx50 | inactive: -0.462 |
| GCUCAGAUAUGAGCAAGCUTT against Fadd | inactive: 0.0462 |
| GGAGACUCCAUACCAGUGUTT against Zfp329 | inactive: 1.78 |
| CGUAACUUUUUGCAUUUGATT against Trpa1 | inactive: 0.116 |
| GGGUUGCUUCAACUUUUAGTT against Mpp1 | inactive: -0.346 |
| GGUAAUGGAAAUGAACAAATT against Zfp353-ps | inactive: 0.381 |
| GGGAAUUACAGCACACAAUTT against Treml4 | inactive: -0.21 |
| CGCAGUACAUACAACUGUGTT against Art1 | inactive: 1.33 |
| CGUGGUGGUUGUUCGAGUATT against Rimkla | inactive: 0.737 |
| GCAUUAGAACAAAGGAUGCTT against Rps19 | inactive: 0.278 |
| GGAUUGUGGUCCAUGAAUATT against Tmprss7 | inactive: -1.65 |
| GGGAUACCAUGGGAAUAGUTT against Vps52 | inactive: 0.908 |
| GUACCACGGAUCUCUUCAUTT against Galr3 | inactive: 0.264 |
| GCGAGUUUUUGGAUGGUAGTT against Slc4a3 | inactive: 0.243 |
| GGAGAGAAGUGCUACAUCATT against Cnmd | inactive: 1.03 |
| CCAAUUAGCCCAAAGAAACTT against Sec14l2 | inactive: 0.609 |
| GGCUAACCGUAUCAGUCAUTT against Podnl1 | inactive: -1.23 |
| CCCAACACAAGGUGUGAGGTT against Ift22 | inactive: -1.1 |
| GCUGGAUGGCACUUAUGACTT against Slc45a3 | inactive: -0.414 |

| Sequence | z-score |
| --- | --- |
| GGUGUACGAGAUCCAGGACTT against Eif3l | inactive: -0.699 |
| GCCUGUUAAUAUGCUGUAATT against Gpr83 | inactive: -0.0705 |
| GUUCCAUAUGGAGCUUGUCTT against Olfr401 | inactive: 0.401 |
| GGUCACAAUUGCGCUAUGATT against Ric8b | inactive: -0.752 |
| GGAGAAACUCUAGAAUUGATT against Mdga2 | inactive: -1.36 |
| CCCUUUGAACUUUCCACACTT against Gm11545 | inactive: -1.79 |
| GGAGAAGAUAGAAGCUGAGTT against Rad23a | inactive: -1.66 |
| GGUGCAAUCAGCUUUCCACTT against Olfr1336 | active: 2.26 |
| GGUUUACCAGGCACUGCUCTT against Atp2b2 | inactive: 0.845 |
| GGUUUUUCAGUGACACAUGTT against Vmn1r192 | active: 2.26 |
| GCAUGCUUCAAGCCCUAGATT against Evc2 | inactive: 1.4 |
| GGAGAAACAGUAAAGAAGATT against Pcbp3 | inactive: 0.205 |
| GGGCCUCUCUCAGUGACAUTT against C1qtnf9 | inactive: 0.617 |
| GAUGAAACCAAAGAAUGGCTT against Ano10 | inactive: -1.22 |
| GAGUUCAUCAGAGUGUAGCTT against Ndufs7 | inactive: 0.897 |
| GGCUGUUGUGCAGACUACATT against Tmem209 | inactive: 0.573 |
| GGGAAAACAGCAAAUAAUUTT against Necab1 | inactive: 1.21 |
| GGAUCAGUGGUAUUGGUUCTT against Krt75 | inactive: -0.0128 |
| GGAAAAAGUUGGCAUCAUUTT against Zswim4 | inactive: -0.0485 |
| CGCCACUGCUUUGAUUACUTT against Coa5 | inactive: -1.51 |
| GGAAGUGGCCACAUGUGAATT against E230025N22Rik | inactive: -0.404 |
| GCAGUGGUAGAUCUUAGAGTT against Lmcd1 | inactive: 1.07 |

| Sequence | z-score |
| --- | --- |
| GGAUGAGUUUUUAAAGUCATT against Otop2 | inactive: -0.883 |
| CGCUUAUCAUGAACAAAGATT against C8b | inactive: -0.621 |
| CCACACAAUCCAGUUAUAATT against 1700055D18Rik | inactive: 1.41 |
| GGCUUUCCUCCAGAUAAACTT against Il6st | inactive: -0.856 |
| GGCUCUGUCCAACAUGAUGTT against Tnnt2 | inactive: -0.938 |
| CGUAUUAGAGAAGAUUACATT against Csnka2ip | inactive: 1.25 |
| GGAAUUAAAAGAGCUGGGCTT against Selenon | inactive: 0.697 |
| GCCAAGCUCGCCAAGAUUATT against P4ha2 | inactive: 0.273 |
| GGGUUUCCAAGACAGACUATT against Il12rb1 | inactive: -0.143 |
| GCUUGCCUAAUGAAACCUUTT against Naaladl1 | inactive: -0.715 |
| GGACAUGAGGACACCAUUGTT against Saa1 | inactive: -1.51 |
| GCCUAAAUGAUGGUGCUUGTT against Klf4 | inactive: -1.82 |
| CCUACACAUACAUUGAUGATT against Eppk1 | inactive: -1.37 |
| CCAAGGCUCACCUUCCAAUTT against Sla | inactive: 0.278 |
| GGAUAAUGUGAUAACACUCTT against Fam171a2 | inactive: 0.926 |
| CAAGUUAAGGAACUAUGAUTT against LOC432823 | inactive: -1.54 |
| GCAACUCAGAAUGUAGUGUTT against Gnai1 | inactive: 0.298 |
| GGGCAUGAAGUUUCUGAUCTT against Fgf17 | inactive: 0.425 |
| GGAGAUUCACUUUCUAUCUTT against B3gnt9 | inactive: 0.656 |
| CCAAGACAUCACAUUCAUATT against Lrriq3 | inactive: -1.38 |
| GCCACUUCCUGGAUAAGGATT against Ftl2-ps | active: -2.88 |
| GGGUUUCUAGUCCUGUUUCTT against Cplx2 | inactive: -0.0159 |

| Sequence | z-score |
| --- | --- |
| GGAAAAUCUCCGUUGUCUCTT against Acin1 | active: -2.76 |
| GGCACAUGGAAUCUUUGAGTT against Edc3 | inactive: -1.65 |
| GGAUGAAAUCUCUAUCCUCTT against Fam20a | inactive: 0.221 |
| CCAGAAACUGACCUCAACCTT against Ltb | inactive: -1.43 |
| GGGCAAACUCUAGAGCUACTT against Pdgfrl | inactive: -0.0578 |
| GGGUUGAUUAAAGUUUAACTT against Gsx2 | inactive: 1.4 |
| GGAAUACGAAAAGCAGGACTT against Tmem107 | inactive: 1.39 |
| GCACAGUUGGCAACCUUUATT against S100a9 | inactive: -0.029 |
| GGAAUUGAGACCCAAUAUUTT against Cnot7 | inactive: -0.353 |
| GGAAUGCAGCCAUCCUAUCTT against Mia | inactive: 0.0985 |
| GGAUAACACCGCCAUUCCATT against Csn3 | inactive: -0.303 |
| GGCUGAAACAAGAACGUGATT against Prrc2a | inactive: -1.47 |
| GGAAGAUCAUCCUAUUAUGTT against Wdr26 | inactive: -0.219 |
| GCGAUAGCAUAUCCUAUCCTT against Gnb1 | inactive: 1.11 |
| GGCCCAUGAUCCAUUUUGGTT against Prnp | active: -2.07 |
| GGUGACAUUUGAGAUCUAUTT against Plcg2 | inactive: 1.54 |
| GCCACUAUACAUAUUCUGGTT against Pcdhb18 | inactive: -1.02 |
| GGUGUGGUCAAGAAAGUGGTT against Atp6v1c1 | inactive: 1.32 |
| GGAAUUUGGUGCAGUGUCCTT against Utp15 | inactive: -1.39 |

Fetched one by one from the list above:

| Sequence | z-score |
| --- | --- |
| GCGAUAGCAUAUCCUAUCCTT against Gnb1 | inactive: 1.11 |
| CCCUUUGAACUUUCCACACTT against Gm11545 | inactive: -1.79 |
| CGCCACUGCUUUGAUUACUTT against Coa5 | inactive: -1.51 |
| CCAAGGCUCACCUUCCAAUTT against Sla | inactive: 0.278 |
| GAGUUCAUCAGAGUGUAGCTT against Ndufs7 | inactive: 0.897 |
| GGCUUUCCUCCAGAUAAACTT against Il6st | inactive: -0.856 |
| GCCUGCCUACGAGAUCAACTT against Mgp | inactive: -0.0804 |
